Experimental findings from article PMC3112164 are described below.

Chains of the proteins cited; added tags and fusions are not shown. Residues count along the entry.
UniProt P08581, residues 25-1390: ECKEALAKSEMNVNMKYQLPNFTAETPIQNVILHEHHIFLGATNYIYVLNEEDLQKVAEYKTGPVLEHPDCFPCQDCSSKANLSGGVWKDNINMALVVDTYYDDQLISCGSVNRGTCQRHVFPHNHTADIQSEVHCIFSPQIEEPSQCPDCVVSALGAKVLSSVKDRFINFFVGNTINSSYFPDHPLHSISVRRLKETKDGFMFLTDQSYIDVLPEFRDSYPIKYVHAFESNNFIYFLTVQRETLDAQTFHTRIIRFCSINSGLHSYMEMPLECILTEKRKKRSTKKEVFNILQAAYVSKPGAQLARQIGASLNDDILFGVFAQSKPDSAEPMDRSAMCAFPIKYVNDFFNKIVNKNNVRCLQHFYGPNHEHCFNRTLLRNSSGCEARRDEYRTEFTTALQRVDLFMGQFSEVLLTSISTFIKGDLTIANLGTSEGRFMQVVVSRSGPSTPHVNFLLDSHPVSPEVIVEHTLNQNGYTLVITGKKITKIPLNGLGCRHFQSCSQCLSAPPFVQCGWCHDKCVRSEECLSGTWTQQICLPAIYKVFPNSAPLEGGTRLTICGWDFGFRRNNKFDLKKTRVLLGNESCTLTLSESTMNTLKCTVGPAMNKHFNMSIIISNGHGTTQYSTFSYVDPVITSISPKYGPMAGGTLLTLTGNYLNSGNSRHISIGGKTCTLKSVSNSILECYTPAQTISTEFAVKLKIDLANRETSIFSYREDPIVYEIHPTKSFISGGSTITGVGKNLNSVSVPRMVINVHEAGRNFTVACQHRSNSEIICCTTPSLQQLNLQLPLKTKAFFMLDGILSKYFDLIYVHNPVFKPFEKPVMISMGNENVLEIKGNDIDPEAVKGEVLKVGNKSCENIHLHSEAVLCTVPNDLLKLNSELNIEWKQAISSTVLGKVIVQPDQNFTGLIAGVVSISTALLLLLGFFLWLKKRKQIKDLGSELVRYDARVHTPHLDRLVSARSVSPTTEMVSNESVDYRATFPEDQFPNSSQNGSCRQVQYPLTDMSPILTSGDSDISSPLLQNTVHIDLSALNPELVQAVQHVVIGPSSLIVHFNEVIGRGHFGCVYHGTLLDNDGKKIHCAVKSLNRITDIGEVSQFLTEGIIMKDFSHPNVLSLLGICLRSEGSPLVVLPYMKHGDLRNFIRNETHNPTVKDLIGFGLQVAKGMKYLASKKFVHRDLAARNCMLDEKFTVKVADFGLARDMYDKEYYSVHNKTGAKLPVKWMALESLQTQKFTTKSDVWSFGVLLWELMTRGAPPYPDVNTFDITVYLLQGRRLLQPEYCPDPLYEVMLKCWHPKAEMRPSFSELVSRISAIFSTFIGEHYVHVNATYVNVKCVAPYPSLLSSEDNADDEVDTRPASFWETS
UniProt P40763: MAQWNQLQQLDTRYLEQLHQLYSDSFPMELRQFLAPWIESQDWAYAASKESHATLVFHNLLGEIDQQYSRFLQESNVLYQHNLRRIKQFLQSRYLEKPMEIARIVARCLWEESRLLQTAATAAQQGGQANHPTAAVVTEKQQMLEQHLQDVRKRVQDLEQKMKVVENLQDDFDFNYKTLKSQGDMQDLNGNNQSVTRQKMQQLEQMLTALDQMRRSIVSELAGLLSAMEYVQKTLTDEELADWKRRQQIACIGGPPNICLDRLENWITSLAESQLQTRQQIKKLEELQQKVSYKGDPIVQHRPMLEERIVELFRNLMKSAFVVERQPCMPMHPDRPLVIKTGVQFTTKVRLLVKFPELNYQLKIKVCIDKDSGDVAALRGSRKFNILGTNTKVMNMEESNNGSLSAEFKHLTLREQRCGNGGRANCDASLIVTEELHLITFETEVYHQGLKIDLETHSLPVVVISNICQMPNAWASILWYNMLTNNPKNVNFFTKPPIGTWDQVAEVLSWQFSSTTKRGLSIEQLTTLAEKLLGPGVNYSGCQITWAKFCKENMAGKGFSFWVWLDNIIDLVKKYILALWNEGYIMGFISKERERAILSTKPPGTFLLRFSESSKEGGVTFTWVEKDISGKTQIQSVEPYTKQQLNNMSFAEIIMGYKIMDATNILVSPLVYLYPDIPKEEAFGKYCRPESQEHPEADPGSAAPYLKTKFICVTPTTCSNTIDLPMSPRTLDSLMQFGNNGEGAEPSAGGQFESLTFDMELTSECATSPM

Results are given in words; binding and its absence hold for the method and conditions named. Binding seen in cells or lysates may run through a third protein. Some results given as binding are weak or reduced against the parent protein; the word gives no strength.

Assay [1] has as its target c-met receptor tyrosine kinase (human (endogenous in SRB12-p9)) (UniProt P08581). The experiment in a line: co-IP; reciprocal immunoprecipitation with total c-met and total Stat3 antibodies from lysates (500 μg, 1% NP-40 in PBS) of WT and DN2 SRB12-p9 cells, serum-starved overnight, untreated or treated with 100 ng/ml HGF for 30 minutes; 4°C overnight; Western blot with the reciprocal antibody; rabbit IgG control. A general note: In western blotting, separated proteins are transferred to a membrane and probed.

Assay [2] addresses Stat3 (human (endogenous in SRB12-p9)) (UniProt P40763). Described as above.

Take Stat3 (from UniProt P40763 1-770): in assay [1], the binding entry is recorded as “binds”.

“c-met receptor tyrosine kinase (from UniProt P08581 25-1390)”: the binding entry in assay [2] was “binds”.
